Where a name gives a salt, the structure may show the parent alone. The list shows a part of the results. Repeats in this data set agree poorly, so a single value says little.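 Cells: ReNCell VM human fetal ventral-midbrain neural progenitors, differentiated mitogen-free. Blinded raters compared doublecortin-stained (early neurons) or tyrosine hydroxylase-stained (dopaminergic neurons) images with untreated wells, where 0 means no change. After repeats and both raters were averaged, compounds scoring 2 or above became hits for retesting.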
Test system: ReNCell VM
Test: neuronal differentiation score (DCX+ cell fraction vs untreated, manual image score) (score (-3 to 3)); higher = more neuronal differentiation
Settings: library: Spectrum; 2 uM; 2 weeks

Compound	neuronal differentiation score
CCN(CC)C(=O)C1(c2ccccc2)CC1CN (stereo unspecified)	inactive: 0
Cc1nc2n(c(=O)c1CCN1CCC(c3noc4cc(F)ccc34)CC1)CCCC2O (stereo unspecified)	inactive: 0
C/C=C(/C(=C/C)c1ccc(O)cc1)c1ccc(O)cc1	inactive: 0
CN(C)c1ccc2nc3ccc(=[N+](C)C)cc-3sc2c1	inactive: -3
OCCOCCN1CCN(C(c2ccccc2)c2ccc(Cl)cc2)CC1 (stereo unspecified)	inactive: 0
CC(=O)Oc1c(C)c(C)c2c(c1C)CCC(C)(CCCC(C)CCCC(C)CCCC(C)C)O2 (stereo not drawn) [alpha-TOCHOPHERYL ACETATE]	inactive: 0
C[n+]1ccccc1C=NO	inactive: 1
CNC[C@H](O)c1ccc(O)c(O)c1	inactive: 0
CN1CCC(=C2c3ccccc3CCc3sccc32)CC1	inactive: 0
NC(=O)C1(N2CCCCC2)CCN(CCCC(=O)c2ccc(F)cc2)CC1	inactive: 0
CC(COc1ccccc1)N(CCCl)Cc1ccccc1 (stereo unspecified)	inactive: 1
COc1c(-c2coc3cc4c(cc3c2=O)CC(OC(C)=O)C(C)(C)O4)ccc2c1C=CC(C)(C)O2 (stereo unspecified)	inactive: 0
O=C([O-])c1ccccc1O.[Na+]	inactive: 0
CC(N)C12CC3CC(CC(C3)C1)C2 (stereo unspecified)	inactive: 0
O=C1OC(CN2CCOCC2)CN1/N=C/c1ccc([N+](=O)[O-])o1 (stereo unspecified)	inactive: 0
COc1c(C)c2c(c(O)c1C/C=C(\C)CCC(=O)O)C(=O)OC2	inactive: 0

Same assay, conditions: library: Tocriscreen; 2 uM; 2 weeks

Compound	neuronal differentiation score
O=C(O)c1c(Sc2ccccc2)c2cc(Cl)ccc2n1Cc1ccc(Cl)cc1	inactive: 0
O=[N+]([O-])c1ccccc1S(=O)(=O)NCC1CCC(CNCC2CCc3ccccc3C2)CC1 (stereo unspecified) [NTNCB hydrochloride]	inactive: 0
N[C@@H](CC(=O)Nc1ccc(Oc2cc(F)c(F)cc2Br)cc1)C(=O)O	inactive: 0
CCCn1c(=O)c(C)cn2nc(N)nc12	inactive: 0
CS(=O)(=O)Nc1c(O)ccc2c1CCCC2C1=NCCN1 (stereo unspecified)	inactive: 0
CC(C)[C@H]1c2ccc(F)cc2CC[C@@]1(CCN(C)CCCc1nc2ccccc2[nH]1)OC(=O)C1CC1 [NNC 55-0396 dihydrochloride]	inactive: 0

Two compounds drawn at random from those above:
Compound	neuronal differentiation score
N[C@@H](CC(=O)Nc1ccc(Oc2cc(F)c(F)cc2Br)cc1)C(=O)O	inactive: 0
O=C(O)c1c(Sc2ccccc2)c2cc(Cl)ccc2n1Cc1ccc(Cl)cc1	inactive: 0

Test system: ReNCell VM
Test: dopaminergic neuron differentiation score (TH+ cell fraction vs untreated, manual image score) (score (0 to 3)); higher = more TH+ dopaminergic neuron differentiation
Settings: library: LOPAC; 2 uM; 4 weeks; BDNF 10 ng/ml + GDNF 10 ng/ml

Compound	dopaminergic neuron differentiation score
Nc1ccc2c3c(cccc13)C(=O)NC2=O [4-Amino-1,8-naphthalimide]	inactive: 0
CNCC[C@@H](Oc1ccccc1C)c1ccccc1 [Tomoxetine]	inactive: 0
Fc1ccc([C@@H]2CCNC[C@H]2COc2ccc3c(c2)OCO3)cc1 [Paroxetine hydrochloride hemihydrate (MW = 374.83)]	inactive: 0
CCCCCCCC/C=C\CCCCCCCC(=O)NCCc1ccc(O)c(O)c1 [N-Oleoyldopamine]	inactive: 0
CNc1cc(NS(=O)(=O)c2ccc(N)cc2)nc(NC)n1 [Ro 04-6790 dihydrochloride]	inactive: 0
COCc1nc2c([nH]1)c(=O)n(C)c(=O)n2CC(C)C [8-Methoxymethyl-3-isobutyl-1-methylxanthine]	inactive: 0
CN1[C@@H](CC(=O)c2ccccc2)CCC[C@H]1C[C@H](O)c1ccccc1 [alpha-Lobeline hydrochloride]	inactive: 0
CNCCNS(=O)(=O)c1cccc2cnccc12 [H-8 dihydrochloride]	inactive: 0
CC(=O)/C(C)=N/O [2,3-Butanedione monoxime]	inactive: 1

Same assay, conditions: library: Prestwick; 2 uM; 4 weeks; BDNF 10 ng/ml + GDNF 10 ng/ml

Compound	dopaminergic neuron differentiation score
CN1C(=O)OC(C)(C)C1=O [Trimethadione]	inactive: 0
CO[C@H]1/C=C/O[C@@]2(C)Oc3c(C)c(O)c4c(O)c(c5c(nc6cc(C)ccn65)c4c3C2=O)NC(=O)/C(C)=C\C=C\[C@H](C)[C@H](O)[C@@H](C)[C@@H](O)[C@@H](C)[C@H](OC(C)=O)[C@@H]1C [Rifaximin]	active: 3
CC[C@H](C)C(=O)O[C@H]1C[C@H](O)C=C2C=C[C@H](C)[C@H](CC[C@@H](O)C[C@@H](O)CC(=O)O)[C@H]21 [Pravastatin]	active: 3
NS(=O)(=O)c1cc2c(cc1C(F)(F)F)NCNS2(=O)=O [Hydroflumethiazide]	inactive: 0
C#Cc1cccc(Nc2ncnc3cc(OCCOC)c(OCCOC)cc23)c1 [Erlotinib]	inactive: 0
CNCC(O)c1ccc(OC(=O)C(C)(C)C)c(OC(=O)C(C)(C)C)c1 (stereo unspecified) [Dipivefrin hydrochloride]	inactive: 0
N=C(N)NCCN1CCCCCCC1 [Guanethidine sulfate]	inactive: 0
CC(N)CCCC(C)(C)O (stereo unspecified) [Heptaminol hydrochloride]	inactive: 0
O=C(O)CCC(=O)c1ccc(-c2ccccc2)cc1 [Fenbufen]	inactive: 0

Same assay, conditions: library: Spectrum; 2 uM; 4 weeks; BDNF 10 ng/ml + GDNF 10 ng/ml

Compound	dopaminergic neuron differentiation score
CCN(CC)C(=O)C1(c2ccccc2)CC1CN (stereo unspecified)	inactive: 0
Cc1nc2n(c(=O)c1CCN1CCC(c3noc4cc(F)ccc34)CC1)CCCC2O (stereo unspecified)	inactive: 0
C/C=C(/C(=C/C)c1ccc(O)cc1)c1ccc(O)cc1	inactive: 0
CN(C)c1ccc2nc3ccc(=[N+](C)C)cc-3sc2c1	inactive: 0
OCCOCCN1CCN(C(c2ccccc2)c2ccc(Cl)cc2)CC1 (stereo unspecified)	inactive: 0
CC(=O)Oc1c(C)c(C)c2c(c1C)CCC(C)(CCCC(C)CCCC(C)CCCC(C)C)O2 (stereo not drawn) [alpha-TOCHOPHERYL ACETATE]	inactive: 0
C[n+]1ccccc1C=NO	inactive: 0
CNC[C@H](O)c1ccc(O)c(O)c1	inactive: 0
CN1CCC(=C2c3ccccc3CCc3sccc32)CC1	inactive: 0
NC(=O)C1(N2CCCCC2)CCN(CCCC(=O)c2ccc(F)cc2)CC1	inactive: 0
CC(COc1ccccc1)N(CCCl)Cc1ccccc1 (stereo unspecified)	inactive: 0
COc1c(-c2coc3cc4c(cc3c2=O)CC(OC(C)=O)C(C)(C)O4)ccc2c1C=CC(C)(C)O2 (stereo unspecified)	inactive: 0
O=C([O-])c1ccccc1O.[Na+]	inactive: 0
CC(N)C12CC3CC(CC(C3)C1)C2 (stereo unspecified)	inactive: 0
O=C1OC(CN2CCOCC2)CN1/N=C/c1ccc([N+](=O)[O-])o1 (stereo unspecified)	active: 3
COc1c(C)c2c(c(O)c1C/C=C(\C)CCC(=O)O)C(=O)OC2	inactive: 0

Source: the supplement of paper PMC4635364
